Measured values from ChEMBL document CHEMBL1140569, “Synthesis and structure-activity relationships of thieno[2,3-b]pyrroles as antagonists of the GnRH receptor” (Bioorg Med Chem Lett, 2007).

The chains behind the UniProt entries cited, without tags or fusion partners.
UniProt P08684, whole entry: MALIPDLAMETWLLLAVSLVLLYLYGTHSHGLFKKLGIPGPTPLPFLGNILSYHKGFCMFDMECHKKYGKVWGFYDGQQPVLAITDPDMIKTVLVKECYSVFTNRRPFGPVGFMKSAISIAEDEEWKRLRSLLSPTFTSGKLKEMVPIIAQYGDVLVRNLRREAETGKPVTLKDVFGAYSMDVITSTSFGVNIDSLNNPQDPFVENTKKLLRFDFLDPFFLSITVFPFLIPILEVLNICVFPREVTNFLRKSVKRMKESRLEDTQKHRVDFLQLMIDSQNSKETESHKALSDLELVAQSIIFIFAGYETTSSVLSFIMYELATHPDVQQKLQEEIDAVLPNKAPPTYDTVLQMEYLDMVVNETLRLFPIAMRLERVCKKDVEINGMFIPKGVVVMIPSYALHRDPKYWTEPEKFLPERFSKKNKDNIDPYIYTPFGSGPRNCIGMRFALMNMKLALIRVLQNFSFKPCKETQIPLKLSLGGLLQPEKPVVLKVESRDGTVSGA

Molecular target: Cytochrome P450 3A4 (Homo sapiens, UniProt P08684)
Test: Inhibition of human CYP3A4

In the case of `Cc1cc(C)cc(-c2[nH]c3sc(C(C)(C)C(=O)N4C5CCC4CC5)cc3c2CCN2CCN(CC(=O)N3CCOCC3)CC2)c1`, the IC50 is reported as 0.1 µM.
